Source: patent publication US20050245563A1 (Millennium Pharmaceuticals, Inc., priority 2003, published 2005)
Some of these results come from one statement about several compounds together. For at least one compound, name, drawing or mass did not settle the structure.

Biological target: T1, human Chk1 (GST-Chk1) (Homo sapiens, UniProt O14757)
T1 construct: made in house; host or cells: insect cells (baculovirus, Bac-to-Bac)
T1 sequence (O14757 1-476): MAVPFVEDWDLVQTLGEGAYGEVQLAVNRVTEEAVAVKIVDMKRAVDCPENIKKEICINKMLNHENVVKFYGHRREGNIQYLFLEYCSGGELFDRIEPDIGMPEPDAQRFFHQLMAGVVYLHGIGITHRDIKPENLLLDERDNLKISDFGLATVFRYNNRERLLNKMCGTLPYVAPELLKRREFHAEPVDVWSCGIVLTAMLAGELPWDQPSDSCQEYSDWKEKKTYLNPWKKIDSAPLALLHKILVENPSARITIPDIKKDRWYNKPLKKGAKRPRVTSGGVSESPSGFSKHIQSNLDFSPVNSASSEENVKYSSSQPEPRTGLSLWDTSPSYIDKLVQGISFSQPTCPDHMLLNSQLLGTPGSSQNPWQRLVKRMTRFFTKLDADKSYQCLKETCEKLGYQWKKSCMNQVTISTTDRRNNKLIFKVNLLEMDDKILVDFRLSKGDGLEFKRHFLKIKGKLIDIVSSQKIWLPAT
Assay: Chk1 DELFIA kinase assay (2 nM GST-Chk1, 600 μM ATP)
Assay type: biochemical
Conditions: Biotin-GLYRSPSMPEN-amide substrate
Description: Recombinant human Chk1 was expressed as a fusion protein with glutathione S-transferase at the amino-terminus (GST-Chk1) using standard baculovirus vectors and (Bac-to-Bac®) insect cell expression system purchased from GIBCO™ Invitrogen. Recombinant protein expressed in insect cells was purified using glutathione sepharose (Amersham Biotech) using standard procedures described by the manufacturer.
Chk1 DELFIA® Kinase Assay:
Assays (25 μL) utilized 2 nM GST-Chk1 containing 10 mM Tris, pH 7.5, 20% glycerol, 50 mM sodium chloride (NaCl), 0.01% Surfact-Amps® 20, 1 μM peptide stubstrate (Biotin-GLYRSPSMPEN-amide) (SEQ ID NO: 3), 01.% BSA, 2 mM DTT, 4% DMSO, 600 μM ATP, 10 MM MgCl2 and reacted for 50 minutes at room temperature. Reactions were terminated with 100 μL of Stop buffer containing 1% BSA, 10 mM Tris, pH 8.0, 150 mM NaCl, 100 mM EDTA. Stopped reactions (100 μL) were transferred to 96 well NeutrAvidin plates (Pierce) to capture the biotin-peptide substrate during a 30 minute room temperature incubation. […] Wells were washed and europium released from the bound antibody by addition of Enhancement Solution (100 μL) (PerkinElmer Wallac) and detected using a Perkin Elmer Wallac Envison™ 2100 multilabel reader using standard manufacturer settings.

Compound | IC50
Cc1[nH]nc2c1c(=O)n(CC[C@H](C)N)c1ccc(Cl)cc21 [Example 218, 5-(3S-Amino-butyl)-8-chloro 3-methyl-2,5-dihydro-pyrazolo[4,3-c]quinolin-4-one] | < 1000 nM
Cc1[nH]nc2c1c(=O)n(CC[C@@H]1CCCCN1)c1ccc(Cl)cc21 [Compound 214, 8-Chloro-3-methyl-5-(2S-piperidin-2-yl-ethyl)-2,5-dihydro-pyrazolo[4,3-c]quinolin-4-one] | < 1000 nM
